These are yes or no findings as the source states them, for the method shown. Some binding calls cover weakened binding; strength is not graded here. Sequences can lack the tags named with a protein.
Target: CD3 found on T cells (murine T cells purified from fresh mouse spleen) (mouse) (UniProt P22646)
Experiment: flow cytometry (FACS) on murine spleen T cells

Amino acid sequences for entries named in this document (tags omitted). Residues count along the entry.
UniProt P22646, residues 22-189: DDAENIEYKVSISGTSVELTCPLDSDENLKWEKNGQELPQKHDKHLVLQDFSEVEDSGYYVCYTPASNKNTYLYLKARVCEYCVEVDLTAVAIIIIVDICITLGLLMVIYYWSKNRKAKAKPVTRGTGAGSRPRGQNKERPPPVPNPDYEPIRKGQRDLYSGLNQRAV

binding: binds
B1: anti-mCD3-mFc-mNKG2D fusion protein (heavy chain of anti-mouse CD3-murine Fc-ectodomain of murine NKG2D, co-expressed with the light chain of anti mouse CD3) (Fc fusion)
heavy: EVQLVESGGGLVQPGKSLKLSCEASGFTFSGYGMHWVRQAPGRGLESVAYITSSSINIKYADAVKGRFTVSRDNAKNLLFLQMNILKSEDTAMYYCARFDWDKNYWGQGTMVTVSSATTTAPSVYPLAPACDSTTSTTNTVTLGCLVKGYFPEPVTVSWNSGALTSGVHTFPSVLHSGLYSLSSSVTVPSSTWPSQTVTCNVAHPASSTKVDKKIVPRGDPRDCGCKPCICTVPEVSSVFIFPPKPKDVLTITLTPKVTCVVVDISKDDPEVQFSWFVDDVEVHTAQTKPREEQFNSTFRSVSELPIMHQDWLNGKEFKCRVNSAAFPAPIEKTISKTKGRPKAPQVYTIPPPKEQMAKDKVSLTCMITDFFPEDITVEWQWNGQPAENYKNTQPIMDTDGSYFVYSKLNVQKSNWEAGNTFTCSVLHEGLHNHHTEKSLSHSPGKDLCNKEVPVSSREGYCGPCPNNWICHRNNCYQFFNEEKTWNQSQASCLSQNSSLLKIYSKEEQDFLKLVKSYHWMGLVQIPANGSWQWEDGSSLSYNQLTLVEIPKGSCAVYGSSFKAYTEDCANLNTYICMKRAV
light: DIQMTQSPSSLPASLGDRVTINCQASQDISNYLNWYQQKPGKAPKLLIYYTNKLADGVPSRFSGSGSGRDSSFTISSLESEDIGSYYCQQYYNYPWTFGPGTKLEIKRADAKPTVSIFPPSSEQLGTGSATLVCFVNNFYPKDINVKWKVDGSEKRDGVLQSVTDQDSKDSTYSLSSTLSLTKADYERHNLYTCEVTHKTSTAAIVKTLNRNEC

Reference: patent publication US20080299137A1
